{"sequences": {"note": "Chains of the proteins cited; added tags and fusions are not shown.", "UniProt Q0JBA9, entry or part of it": "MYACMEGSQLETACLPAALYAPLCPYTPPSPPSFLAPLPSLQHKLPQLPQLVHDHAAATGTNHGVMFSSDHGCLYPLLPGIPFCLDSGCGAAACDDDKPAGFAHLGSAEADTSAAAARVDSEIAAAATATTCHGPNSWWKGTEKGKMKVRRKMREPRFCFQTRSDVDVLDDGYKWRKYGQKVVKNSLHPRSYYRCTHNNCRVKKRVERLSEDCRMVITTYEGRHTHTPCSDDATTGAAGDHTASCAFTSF"}, "source": "paper PMC7819943", "about": "“Rice protein-binding microarrays: a tool to detect cis-acting elements near promoter regions in rice”", "note": "Some of the results follow.", "data": [{"biological_target": "OsWRKY34 (Oryza sativa, UniProt Q0JBA9 1-250)", "test": "protein-binding microarray (RPBM); PBS, 2% BSA, 51.3 ng/ul salmon testes DNA, 50 uM zinc acetate, 200 nM TF, 25 C, 1 h; high values mean tight binding", "details": "protein: recombinant; tags: N-terminal polyhistidine and DsRed monomer fusion (pET32a); label: CyDye5-dUTP incorporated in the synthesized complementary strand; 3' TTTTT single-stranded linker to array surface; dsDNA, one strand shown", "method_in_brief": "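Per-feature fluorescence intensity (arbitrary units), read on an Axon 4000B scanner, is the binding signal. Transcription factors carrying an N-terminal polyhistidine tag and DsRed fusion were expressed in E. coli BL21-CodonPlus and purified on Ni–NTA. A custom Agilent array, made double-stranded by primer extension with Cy5-dUTP and blocked with 2% BSA, was incubated with 200 nM protein in PBS, 2% BSA, salmon testes DNA and 50 µM zinc acetate at 25 °C for 1 h and then washed.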", "values": [{"sequence": "CGATTATTCCTGATGTTGCAATTGCCATCCTCCGTCACCCCGGAGTCACCTAGTGCAG", "binding signal": "10000 fluorescence intensity (a.u.)"}, {"sequence": "GGATAGACAGTTTCCTTTGATCATGTGACGTTTGATTATTCGGAGTCACCTAGTGCAG", "binding signal": "8570 fluorescence intensity (a.u.)"}, {"sequence": "GCGCACCTTTTCTTCTACCAGTGGAGGTCCATCTTGTACTCGGAGTCACCTAGTGCAG", "binding signal": "8840 fluorescence intensity (a.u.)"}, {"sequence": "TCCGCCGCGGCCACCACCCTCACCCTCACCCTCGTCGCCACGGAGTCACCTAGTGCAG", "binding signal": "9260 fluorescence intensity (a.u.)"}, {"sequence": "GTGGAGGGTGGGGTGACGTGGTTTCCGGGTTGGTGCAATGCGGAGTCACCTAGTGCAG", "binding signal": "13300 fluorescence intensity (a.u.)"}, {"sequence": "CTATTTGGTCGACTGTCAGCATTTTGCCCTTGACGCTCATCGGAGTCACCTAGTGCAG", "binding signal": "8860 fluorescence intensity (a.u.)"}, {"sequence": "GTAGCTGACATACCTGTTGATATTGTGTCGTCCGTAGTGACGGAGTCACCTAGTGCAG", "binding signal": "8230 fluorescence intensity (a.u.)"}, {"sequence": "CATGTGTTTTTCCTATATTTTCCAATCCTCTGTTTTATACCGGAGTCACCTAGTGCAG", "binding signal": "10600 fluorescence intensity (a.u.)"}, {"sequence": "CGAACCTTCCACACACAGACTAGGAGCTTAGAATCTCACCCGGAGTCACCTAGTGCAG", "binding signal": "8450 fluorescence intensity (a.u.)"}, {"sequence": "ATCCCTCTTTTCACATTTGTTTGTTCTCACTATATTGTTCCGGAGTCACCTAGTGCAG", "binding signal": "9380 fluorescence intensity (a.u.)"}, {"sequence": "CTAAATGTTACATACGCGTTGGTGGGGCCGGGGCGGCAGTCGGAGTCACCTAGTGCAG", "binding signal": "13200 fluorescence intensity (a.u.)"}, {"sequence": "CTGCTAGTCACATCATTGCTCCACTTCACCATCTTGTCATCGGAGTCACCTAGTGCAG", "binding signal": "10800 fluorescence intensity (a.u.)"}, {"sequence": "AATTCCTGGTGTTAAGCTCTGTGTGGTGTGTGCTCCTATTCGGAGTCACCTAGTGCAG", "binding signal": "9090 fluorescence intensity (a.u.)"}, {"sequence": "ATCTCTCCGAATTCTCCCCATCATCGCCATCGACGGCTTCCGGAGTCACCTAGTGCAG", "binding signal": "10200 fluorescence intensity (a.u.)"}, {"sequence": "CTTCCTCGCGCCGCCACCGCCGCCGCCTCCGCCTCGCACACGGAGTCACCTAGTGCAG", "binding signal": "8500 fluorescence intensity (a.u.)"}, {"sequence": "GGATACTGCACAGCCCTTGATCACAATACAGTGCATTTCTCGGAGTCACCTAGTGCAG", "binding signal": "9450 fluorescence intensity (a.u.)"}, {"sequence": "TATGATTAAACCGAAGCTCATCTGTGGCCCATTACTGCCCCGGAGTCACCTAGTGCAG", "binding signal": "8040 fluorescence intensity (a.u.)"}, {"sequence": "AGCTCACAATTTTTTTTCTTGCTCATGACGTGCTTAGACCCGGAGTCACCTAGTGCAG", "binding signal": "11000 fluorescence intensity (a.u.)"}, {"sequence": "CGTCCCTCGCGCACCGCCCGGCCAAGCCGCTCCCAGGGACCGGAGTCACCTAGTGCAG", "binding signal": "8640 fluorescence intensity (a.u.)"}, {"sequence": "GGGCATTTTTGATATTTCACGCGATTTCACTCTCCTCTTCCGGAGTCACCTAGTGCAG", "binding signal": "8770 fluorescence intensity (a.u.)"}, {"sequence": "TCTTAGACATGATATTTTTATAAATGTAGTTTGACTTTTTCGGAGTCACCTAGTGCAG", "binding signal": "9730 fluorescence intensity (a.u.)"}, {"sequence": "TACATTGCTAGAAAGCGCCGCACCCGTCACCGGCAAACTCCGGAGTCACCTAGTGCAG", "binding signal": "9870 fluorescence intensity (a.u.)"}, {"sequence": "CTAGCTTTCGTCTCAGCGCTCCGTCCTGCGGTCTTTTGGGCGGAGTCACCTAGTGCAG", "binding signal": "10600 fluorescence intensity (a.u.)"}, {"sequence": "CCTTTTCTCGATCTGCACCATCCCCAAGCCCAATAAAAGACGGAGTCACCTAGTGCAG", "binding signal": "8520 fluorescence intensity (a.u.)"}, {"sequence": "TCCACCACACACGCGCACCAACCGAAGGCGAAATCCCCAACGGAGTCACCTAGTGCAG", "binding signal": "8060 fluorescence intensity (a.u.)"}, {"sequence": "TATTATAGGTGTTGGTTCTGTATCGGTTAATTAAAGAACGCGGAGTCACCTAGTGCAG", "binding signal": "9440 fluorescence intensity (a.u.)"}, {"sequence": "ACACACACAGCCCCAGATTCCATTTCACACTCGCGTATATCGGAGTCACCTAGTGCAG", "binding signal": "8870 fluorescence intensity (a.u.)"}, {"sequence": "ACTCAAGTCTTAGGGGCTGTTTGGTTGGTTGCCACACTTTCGGAGTCACCTAGTGCAG", "binding signal": "10200 fluorescence intensity (a.u.)"}, {"sequence": "TAGCTCACATCGTTTTACGTATCTTCCCAATCTCCTGATCCGGAGTCACCTAGTGCAG", "binding signal": "8950 fluorescence intensity (a.u.)"}, {"sequence": "ACGCACACCACTCCACTCCATCCATCTACTCCACCGCGCTCGGAGTCACCTAGTGCAG", "binding signal": "8360 fluorescence intensity (a.u.)"}, {"sequence": "TTTTTGGATTGACTACTTCATTGTTCTATGTGAGCACGTTCGGAGTCACCTAGTGCAG", "binding signal": "8760 fluorescence intensity (a.u.)"}, {"sequence": "GCCGGATCGAACTCATCAGCATCAGCACATCTCTCTTCTCCGGAGTCACCTAGTGCAG", "binding signal": "8970 fluorescence intensity (a.u.)"}, {"sequence": "CCTCGTCGTCCTCCACTCCGCTCTCCAACGCGAACGCTTCCGGAGTCACCTAGTGCAG", "binding signal": "8130 fluorescence intensity (a.u.)"}, {"sequence": "TGCCCTGCATTGCACAGTACAGCAACCATACGATTCCGTACGGAGTCACCTAGTGCAG", "binding signal": "8950 fluorescence intensity (a.u.)"}, {"sequence": "ACGCCGTTGGCTTTTTAGCATATATTTGACCATTCATCTTCGGAGTCACCTAGTGCAG", "binding signal": "8190 fluorescence intensity (a.u.)"}, {"sequence": "GTATTGCTCTTATTCACCATAATCATACCAGTATAATATTCGGAGTCACCTAGTGCAG", "binding signal": "8390 fluorescence intensity (a.u.)"}, {"sequence": "TCACGTCCAACGTTTGACCGCTCGTCTTATTTGAAATTTTCGGAGTCACCTAGTGCAG", "binding signal": "8370 fluorescence intensity (a.u.)"}, {"sequence": "CACACGTCTCCATCTCCATCGAGCCCAGCTCCACGAGCCGCGGAGTCACCTAGTGCAG", "binding signal": "9350 fluorescence intensity (a.u.)"}, {"sequence": "ATGCCCCGATGGCCCATGGCCCCGCCGACTCGCACCCGACCGGAGTCACCTAGTGCAG", "binding signal": "10500 fluorescence intensity (a.u.)"}, {"sequence": "CAGCTCGTTGACATTCCTAATTGTTTTGATTGTCATCCACCGGAGTCACCTAGTGCAG", "binding signal": "8480 fluorescence intensity (a.u.)"}, {"sequence": "GCATTTGTAGTGGCACAACCGCTGTCACTGTCGTTACACACGGAGTCACCTAGTGCAG", "binding signal": "8780 fluorescence intensity (a.u.)"}, {"sequence": "ACGCTCCATCAATGTATTTTTGTGTCGGGGCCCTAACTTACGGAGTCACCTAGTGCAG", "binding signal": "9030 fluorescence intensity (a.u.)"}]}]}
